# Legend:
# [1] = tested on: human hepatocyte cell line (HepG2); experiment: HepG2 cell inhibition assay (CCK-8 cell viability); type: cell-based; settings: for Therapeutic Index (HepG2)/E. coli: HepG2 TD50 divided by dose where 50% of E. coli growth is inhibited; for Therapeutic Index (HepG2)/S. aureus: HepG2 TD50 divided by dose where 50% of S. aureus growth is inhibited
# Procedure: Cell counting kit-8 (Sigma, CCK-8) assays were performed to assess the effect of compounds on cell viability. The assay is based on the reduction of a water-soluble tetrazolium salt (WST-8) by cellular dehydrogenases to a formazan dye which can be detected spectroscopically. 96-well plates were seeded with the human hepatocyte cell line (HepG2) at approximately 8×10^3 cells per well in Minimum Essential Medium Eagle (EMEM) with Earle's salts and sodium bicarbonate supplemented with 10% heat-inactivated foetal bovine serum 2 mM glutamine and 1% non-essential amino acids (NEAA). The following day serial dilutions of compounds (dissolved and diluted in DMSO) were added to the cells in duplicates. Control included an ‘untreated’ control where cells were grown in the presence of 1% DMSO and a medium only control (plus 1% DMSO). After 24 hours CCK-8 reagent (10 μl) was added to each well and cell viability was assessed by measuring the absorbance at a wavelength of 450 nm after 2-3 h hours. Only living cells can reduce the tetrazolium salts into coloured formazan products. Results were expressed as 50% growth inhibition (TD50) values compared to ‘untreated’ control. The therapeutic index was calculated as the ratio of the dose that produces growth inhibition in 50% of HepG2 cells divided by the dose where 50% of S. aureus or E. coli growth is inhibited.
# [2] = tested on: chinese hamster ovary cells (CHO); experiment: CHO toxicity assay (CCK-8 cell viability); type: cell-based; settings: CHO TD50 divided by dose where 50% of S. aureus growth is inhibited
# Procedure: Cell counting kit-8 (Sigma, CCK-8) assays were performed to assess the effect of compounds on cell viability. The assay is based on the reduction of a water-soluble tetrazolium salt (WST-8) by cellular dehydrogenases to a formazan dye which can be detected spectroscopically. 96-well plates were seeded with chinese hamster ovary cells (CHO) cells at 7×10^3 cells per well in Dulbecco's modified Eagle's medium nutrient mixture F-12 Ham (containing 15 mM HEPES, NaHCO3, pyridoxine and L-glutamine) supplemented with 10% fetal bovine serum (FBS). The following day serial dilutions of compounds (dissolved and diluted in DMSO) were added to the cells in duplicates. Control included an ‘untreated’ control where cells were grown in the presence of 1% DMSO and a medium only control (plus 1% DMSO). After 24 hours CCK-8 reagent (10 μl) was added to each well and cell viability was assessed by measuring the absorbance at a wavelength of 450 nm after 2.5-3 hours. Only living cells can reduce the tetrazolium salts into coloured formazan products. Results were expressed as 50% growth inhibition (TD50) values compared to ‘untreated’ control.
# The therapeutic index was calculated as the ratio of the dose that produces growth inhibition in 50% of CHO cells divided by the dose where 50% of S. aureus growth is inhibited.
Compound,Therapeutic Index (HepG2)/E. coli [1],Therapeutic Index (HepG2)/S. aureus [1],Therapeutic Index (CHO) [2]
CN1CCC([S][Au]=[P](C)(C)C)CC1 [Compound 13],4,>19,
CC(=O)N[C@@H](C[S][Au]=[P](C)(C)C)C(N)=O [Compound 4],5,24,
C[P](C)(C)=[Au][S]c1nc2cccnc2[nH]1 [Compound 7],5,18,
CCOC(=O)[C@H](C[S][Au]=[P](C)(C)C)NC(C)=O [Compound 8],2,32,
C[P](C)(C)=[Au][S]c1nc2ncccc2o1 [Compound 3],8,10,9.4
C[P](C)(C)=[Au][S]c1ncccn1 [Compound 12],3,>6,
C[P](C)(C)=[Au][S]c1nc2ccccc2[nH]1 [Compound 1],4,10,9.4
C[P](C)(C)=[Au][S]c1cccnc1 [Compound 19],4,>4,
C[P](C)(C)=[Au][S]c1ccccn1 [Compound 11],5.5,>6,
C[P](C)(C)=[Au][S][C@H]1CC[C@H](O)CC1 [Compound 15],5,>6,
COC(=O)[C@H](C[S][Au]=[P](C)(C)C)NC(C)=O [Compound 2],2.5,31,26
C[P](C)(C)=[Au][S]C1CCOCC1 [Compound 16],2,>6,
C[P](C)(C)=[Au][S]c1nc2ncccc2s1 [Compound 14],10,>9,
C[P](C)(C)=[Au][S]c1ccccc1 [Compound 10],2,>2.5,

# Source: patent US20170226133A1, “Gold (I)-Phosphine Compounds as Anti-Bacterial Agents” (Auspherix Limited, priority 2014, published 2017)
